The results in this text go back to patent US9194863B2, “Treatment of pain” (priority 2011, dated 2015).

One series has as its system mice. Put plainly: Body core temperature by telemetry after subcutaneous injection. The format is in vivo, mouse. The conditions noted are these: PS 28 mg/kg, capsaicin 0.4 mg/kg, Trpm3+/+ and Trpm3−/− mice.
The test system of a further series is DRG neurons. Put plainly: Fura-2 intracellular Ca2+ imaging in isolated DRG neurons. The series is classed as cell-based, mouse. The protocol: Human embryonic kidney cells, HEK293T, were grown in Dulbecco's modified Eagle's medium (DMEM) containing 10% (v/v) human serum, 2 mM L-glutamine, 2 units/ml penicillin, and 2 mg/ml streptomycin at 37° C. in a humidity-controlled incubator with 10% CO2. HEK293T cells were transiently transfected with murine TRPM3α2 (accession number AJ 544535) in the bicistronic pCAGGS/IRES-GFP vector, using Mirus TransIT-293 (Mirus corporation; Madison USA). Transfected cells were visualized by green fluorescence protein (GFP) expression whereas GFP negative cells from the same batch were used as controls. TG and DRG neurons from adult (postnatal weeks 8-12) male mice were isolated as described previously (Karashima et al., 2007). HEK293T cells stably transfected with TRPM3α2 were developed using the Flp-In System (Invitrogen).
Fura-2-based ratiometric intracellular Ca^2+ measurements were performed as described previously (Vriens et al., 2007). The following procedure was used to distinguish stimulus-induced responses from background variations in fluorescence. First, we calculated the time derivative of the fluorescence ratio (dRatio/dt), and the standard deviation (SD) of dRatio/dt in the absence of any stimulus. A positive response was noted when a stimulus caused an increase of dRatio/dt exceeding 5×SD. […] For every condition, a minimum of 100 cells derived from at least three separated isolations and in at least twelve independent measurements were analyzed.

Bounds are passed on as bounds.

With `CC(=O)C1CCC2C3CC=C4CC(OS(=O)(=O)O)CCC4(C)C3CCC12C` (centres unmarked) [PS, pregnenolone sulphate], in the series with mice, the “effect on core body temperature” value was “without effect”. Besides, in the series with DRG neurons, the “average diameter of responsive DRG neurons” value is given as 12.4±0.3 μm and the “diameter of responsive DRG neurons” value is below 25 μm.

Regarding `COc1cc(CNC(=O)CCCC/C=C/C(C)C)ccc1O` [capsaicin], the “effect on core body temperature” value with mice was “clear hypothermia”. Besides, the “average diameter of responsive DRG neurons” value in the series on DRG neurons worked out at 12.0±0.3 μm.
